Drawing on patent US20210338708A1, “METHOD FOR TREATMENT OF CORONAVIRUS INFECTION” (Renibus Therapeutics, Inc., priority 2020, published 2021), this text covers EC50 for one molecule.

In this assay the test system is SARS-CoV-2. The assay is described as follows: microbe, parasite or virus in culture. It counts as cell-based, SARS-CoV-2 (2019-nCoV/USA-WA1/2020 strain). The conditions noted are these: Severe acute respiratory syndrome coronavirus 2, Vero C1008; Condition 2, drug treatment after virus exposure; Vero E6; non-linear regression; read-out: EC50, SARS-CoV-2 replication.

`CCC(CC)COC(=O)[C@H](C)N[P@](=O)(OC[C@H]1O[C@@](C#N)(c2ccc3c(N)ncnn23)[C@H](O)[C@@H]1O)Oc1ccccc1` [Remdesivir, reference compound]: the EC50 (as a rule, the concentration giving half of the maximal effect) came out at 1760 nM.
